Reference: US5998521A, “Aqueous fluoropolymer compositions and method of preparing the same” (3M Innovative Properties Company, priority 1996, dated 1999)

Assay: Emulsion copolymerization of hexafluoropropylene and vinylidene fluoride
Settings: for Size: latex particle size
From the text: The following procedure was used to evaluate C7 F15 CF(CF3)COO^- NH4^+ (from Ex. M1) as an emulsifier to copolymerize hexafluoropropylene (HFP) and vinylidene fluoride.
A 1 gallon, vertically agitated stainless steel reactor with pressure and temperature controls was evacuated and twice purged with nitrogen. Using an isolated vacuum, a solution comprised of 2 g of ammonium persulfate (initiator) and 6 g of dipotassium phosphate dissolved in 2800 g of deionized water was introduced into the reactor. The remaining vacuum on the reactor was vented with nitrogen, and the solution was degassed twice under agitation using alternate vacuum and nitrogen purges. A sufficient amount of a solution of C7 F15 CF(CF3)COO^- NH4^+ in approximately 20 g of 60-70° C. deionized water was introduced to the reactor under isolated vacuum to give a calculated final concentration of 350 ppm emulsifier in the aqueous solution. The reactor was vented with nitrogen, the solution was agitated very briefly, and the reactor was evacuated of nitrogen and isolated. Then the reactor was vented with hexafluoropropylene monomer to a pressure of approximately 10 psig (1280 torr total pressure), and the temperature of the batch was raised to 72° C. with high agitation. Maintaining the temperature at 72° C., a monomer mixture of 60% (wt) of vinylidene fluoride and 40% (wt) hexafluoropropylene was fed from a tared gas cylinder into the head space of the reactor to maintain a reactor pressure of 130 psig (7480 total pressure). After feeding in about 1 kg of monomer blend (approximately 3.75 hours duration), the introduction of monomer was ceased, the reaction was allowed to cool to room temperature, and any residual unreacted monomer was vented.
The resulting latex polymer was drained from the reactor, and percent solids of the latex was determined to be 25% by weight as measured by drying 10 g of latex in a forced air oven for 16 hours at 105° C.
The reactor body was separated from the reactor head, and a visual inspection of the reactor was made to determine the amount of coagulated polymer in the reactor (the amount should be minimal in a good polymerization reaction). A qualitative rating was assessed, ranging from "none" to "little" to "some."
The latex stability was determined by half filling a 16 oz (450 mL) jar with latex and shaking several hours in the horizontal position, quantitatively rating the latex after shaking using a 3-point scale ranging from 0=very stable to 3=unstable.
Particle size in the latex was determined using 90° scattering on a Coulter sub-micron particle size analyzer.
Degree of foaming was rated using the following qualitative scale: 0=not foamy, 1=slightly foamy, 2=moderately foamy, and 3=very foamy.
In Example P2, the same experiment was run as in Example P1, except that the concentration of C7 F15 CF(CF3)COO^- NH4^+emulsifier was raised to 3500 ppm, the reaction time decreased from 3.75 to 3.5 hours, and the reaction temperature increased from 72° C. to 78° C.
In Comparative Examples P3-P6, the same experiment was run as in Example P1, except that C8 F17 SO2 N(C2 H5)CH2 COO^- K^+ (Fluorad™ FC-128 Fluorochemical Surfactant, available from 3M Company, St. Paul, Minn.), C7 F15 COO^- H4 N^+ (Fluorad™ FC-143 Fluorochemical Surfactant), and Surflon™ S111S Fluorochemical Surfactant (believed to be nominally telomer-based n-C9 F19 COO^- H4 N^+, commercially available from Asahi Glass Corp., Japan) were substituted for C7 F15 CF(CF3)COO^- HN^+ emulsifier.

SMILES	performance as emulsifier (350 ppm or 3500 ppm, listed as C7 F15 CF(CF3)COO^- NH4^+)	Size (emulsifier 350 ppm) [nm]	Coagulation (emulsifier 350 ppm, listed as C7 F15 CF(CF3)COO^- NH4^+)	Size (emulsifier 3500 ppm) [nm]	Coagulation (emulsifier 3500 ppm, listed as C7 F15 CF(CF3)COO^- NH4^+)	Coagulation (emulsifier 350 ppm)	Coagulation (emulsifier 100 ppm)	Size (emulsifier 100 ppm) [nm]
O=C(O)C(F)(C(F)(F)F)C(F)(F)C(F)(F)C(F)(F)C(F)(F)C(F)(F)C(F)(F)C(F)(F)F (stereo not shown) [Example M14, C7 F15 CF(CF3)COO^- H4 N^+]	performs comparably to Fluorad™ FC-143 and Surflon™ S111S; also recorded: overall performance being comparable to Fluorad™ FC-128	210	some and no coagulation	69	none and coagulation was eliminated	–	–	–
O=C(O)C(F)(F)C(F)(F)C(F)(F)C(F)(F)C(F)(F)C(F)(F)C(F)(F)F [FC-143, C7 F15 COO^- H4 N^+]	–	209	–	–	–	some	–	–
CCN(CC(=O)O)S(=O)(=O)C(F)(F)C(F)(F)C(F)(F)C(F)(F)C(F)(F)C(F)(F)C(F)(F)C(F)(F)F [Fluorad ™ FC-128, C8 F17 SO2 N(C2 H5)CH2 COO^- K^+]	–	88	–	–	–	none	some	237
N.O=C(O)C(F)(F)C(F)(F)C(F)(F)C(F)(F)C(F)(F)C(F)(F)C(F)(F)C(F)(F)C(F)(F)F [Surflon ™ S111S, n-C9 F19 COO^- H4 N^+]	–	203	–	–	–	some	–	–

“Also recorded” adds a separate entry of the source.
